## Results of single-concentration screens

Source: ChEMBL document CHEMBL3988442, “University of Dundee, Small-Polar-MMV Screening Library” (2021).

Results are given as percent effect.
The controls that fix the scale are not given in the record; negative values are as filed.
The compounds are a random part of those screened.
Two or more numbers in one place are separate tests of the same structure; such repeats can differ widely.

Mtb cholesterol medium: 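Whole-cell growth test on Mycobacterium tuberculosis, read after 4 days in a medium based on cholesterol and the lipid DPPC; the read-out is not stated. Concentration: 50 µM. Higher reads as more growth inhibition (inferred: compounds with an IC50 in retests scored well above the rest). Of about 69,000 compounds tested this way, about 370 (0.54%) reached 50% or more in at least one test.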
Mtb glucose medium: 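Phenotypic screen: M. tuberculosis growth, glucose 7H9 medium, 3 days; the read-out is not stated. Tested at 50 µM. Higher reads as more growth inhibition (inferred: compounds with an IC50 in retests scored well above the rest). About 69,000 compounds were tested under these conditions; 1.1% (about 760) showed 50% or more at least once.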

* CN(C)Cc1ccnc(C2CN(Cc3nccs3)CCO2)n1 (stereo not drawn) : Mtb cholesterol medium: 13.74%; Mtb glucose medium: 35.54%
* CC(=O)N1CCC(c2nc3ccc(-c4cccc(F)c4)cn3n2)CC1 : Mtb cholesterol medium: -2.248%; Mtb glucose medium: 23.38%
* O=C(CN1CC(c2nc(C3CC3)no2)C1)NCC1CCCO1.O=C(O)C(=O)O (stereo not drawn) : Mtb cholesterol medium: -12.68%; Mtb glucose medium: -2.763% & -0.5174%
* CCC(NC(=O)c1cccc(N2CCCC2=O)c1)c1ccc(OC)cc1 (stereo not drawn) : Mtb cholesterol medium: 11.36%; Mtb glucose medium: 14.16%
* CC(=O)c1c(C)nn(S(=O)(=O)c2ccccc2)c1C : Mtb cholesterol medium: -26.13%; Mtb glucose medium: -28.88%
* Cc1nccc(C(=O)N2CCCC2c2noc(C(C)C)n2)n1 (stereo not drawn) : Mtb cholesterol medium: 17%; Mtb glucose medium: -4.545%
* Cc1ccc(C(=O)NS(=O)(=O)Cc2ccon2)c(C)c1 : Mtb cholesterol medium: 9.679%; Mtb glucose medium: -4.519% & -3.663%
* [H][C@@]12CN(C(=O)c3cccn3C)C[C@]1([H])C(=O)N(CCN1CCCC1)C2 : Mtb cholesterol medium: -3.54%; Mtb glucose medium: -15.12%
* Cc1cnn(C2CCCN(C(=O)c3ccc(N4CCCC4)nn3)C2)c1 (stereo not drawn) : Mtb cholesterol medium: -11.81%; Mtb glucose medium: -10.73%
* N#Cc1ncn(CC(=O)Cc2c(F)cccc2Cl)n1 : Mtb cholesterol medium: -7.717%; Mtb glucose medium: -1.459%
* CN(C)CC1CN(Cc2coc(-c3ccccc3Cl)n2)CCO1 (stereo not drawn) : Mtb cholesterol medium: -18.53%; Mtb glucose medium: -4.37%
* CC(C)C1CN(C(=O)c2cc(=O)[nH]c(=O)[nH]2)CCC(=O)N1CC1CC1 (stereo not drawn) : Mtb cholesterol medium: -10.65%; Mtb glucose medium: 4.783%
* NC(=O)C1(c2cnccn2)CCCN1Cc1ccncc1 (stereo not drawn) : Mtb cholesterol medium: -0.01662%; Mtb glucose medium: 15.84%
* CC(C)NC(=O)C1c2c(ncn2C(C)C)CCN1Cc1ccccc1.O=C(O)C(F)(F)F (stereo not drawn) : Mtb cholesterol medium: -8.527%; Mtb glucose medium: -1.662% & -14.5%
* CNC(=O)COc1ccccc1CNC1CCc2ncnn2C1 (stereo not drawn) : Mtb cholesterol medium: 8.039%; Mtb glucose medium: -24.11%
* CC(=O)c1cnc(N(C)Cc2cc(C)cc(C)n2)nc1C : Mtb cholesterol medium: -15.71%; Mtb glucose medium: -31.27% & -8.694%
* CCOCC(O)CN1CCN(C(=O)c2ccncc2)CC1 (stereo not drawn) : Mtb cholesterol medium: -3.066%; Mtb glucose medium: 11.2% & -3.873%
* COc1cccc(OC)c1C(=O)NCC(c1cccn1C)N1CCCC1 (stereo not drawn) : Mtb cholesterol medium: -20.98%; Mtb glucose medium: 10.48%
* CC1CN(C)CCN1C(=O)c1cnn(-c2ccc(Cl)cc2)c1 (stereo not drawn) : Mtb cholesterol medium: -22.62%; Mtb glucose medium: 15.1%
* CC(C)(CO)Nc1cc(-c2ccncc2)ncn1 : Mtb cholesterol medium: -15.19%; Mtb glucose medium: -12.25%
* CC(C)(C)C(O)CN1CCN(CC(=O)NC2CCOCC2)CC1 (stereo not drawn) : Mtb cholesterol medium: -17.45%; Mtb glucose medium: -10.88%
* O=C1NCCN1C1CCCN(Cc2coc(-c3ccc(F)cc3)n2)C1 (stereo not drawn) : Mtb cholesterol medium: -27.96%; Mtb glucose medium: 11.1%
* COc1ccc(Br)cc1CCC(=O)N1CCSCC1 : Mtb cholesterol medium: 0.2035%; Mtb glucose medium: -9.282%

For reference, 2 entries once more:

Compound	Mtb cholesterol medium	Mtb glucose medium
[H][C@@]12CN(C(=O)c3cccn3C)C[C@]1([H])C(=O)N(CCN1CCCC1)C2	-3.54%	-15.12%
COc1ccc(Br)cc1CCC(=O)N1CCSCC1	0.2035%	-9.282%